According to the supplement of paper PMC10849652:
This is one part of the list.

The chains behind the UniProt entries cited, without tags or fusion partners. Where a name states a change or a piece, a line headed by the entry shows the natural chain unless it says otherwise.
UniProt P17936, whole entry, looked up: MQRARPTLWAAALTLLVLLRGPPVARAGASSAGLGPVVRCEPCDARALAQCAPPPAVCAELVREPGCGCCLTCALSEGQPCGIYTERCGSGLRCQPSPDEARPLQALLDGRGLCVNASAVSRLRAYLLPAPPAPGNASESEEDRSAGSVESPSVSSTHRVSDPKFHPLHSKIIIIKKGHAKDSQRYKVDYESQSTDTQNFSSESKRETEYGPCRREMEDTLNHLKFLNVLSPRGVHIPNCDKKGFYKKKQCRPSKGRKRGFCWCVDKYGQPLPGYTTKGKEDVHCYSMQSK
UniProt Q6DN90: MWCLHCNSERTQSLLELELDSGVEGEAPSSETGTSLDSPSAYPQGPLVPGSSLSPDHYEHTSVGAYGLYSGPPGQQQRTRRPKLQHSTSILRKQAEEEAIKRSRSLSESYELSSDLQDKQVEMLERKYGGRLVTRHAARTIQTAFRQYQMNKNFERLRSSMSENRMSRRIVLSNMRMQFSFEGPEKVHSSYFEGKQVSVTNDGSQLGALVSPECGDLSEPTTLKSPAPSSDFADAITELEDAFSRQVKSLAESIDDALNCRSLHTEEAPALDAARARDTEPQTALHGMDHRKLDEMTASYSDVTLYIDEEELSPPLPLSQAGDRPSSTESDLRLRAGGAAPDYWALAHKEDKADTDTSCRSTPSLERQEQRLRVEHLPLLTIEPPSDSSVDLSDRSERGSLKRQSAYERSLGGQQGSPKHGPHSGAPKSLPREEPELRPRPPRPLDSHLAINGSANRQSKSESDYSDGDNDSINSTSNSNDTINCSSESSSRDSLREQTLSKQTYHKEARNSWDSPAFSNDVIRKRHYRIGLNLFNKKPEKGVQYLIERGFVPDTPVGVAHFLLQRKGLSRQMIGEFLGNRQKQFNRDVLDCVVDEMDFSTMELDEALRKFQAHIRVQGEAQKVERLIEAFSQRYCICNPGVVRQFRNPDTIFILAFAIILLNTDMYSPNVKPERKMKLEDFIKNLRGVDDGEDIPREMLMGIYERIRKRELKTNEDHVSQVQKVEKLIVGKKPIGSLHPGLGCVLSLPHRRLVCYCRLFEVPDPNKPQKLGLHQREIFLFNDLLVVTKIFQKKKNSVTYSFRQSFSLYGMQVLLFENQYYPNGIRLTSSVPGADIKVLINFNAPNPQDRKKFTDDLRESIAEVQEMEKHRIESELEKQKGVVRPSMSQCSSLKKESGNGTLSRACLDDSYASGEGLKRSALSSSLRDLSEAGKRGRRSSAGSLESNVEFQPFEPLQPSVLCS
UniProt Q9NXR8, whole entry, looked up: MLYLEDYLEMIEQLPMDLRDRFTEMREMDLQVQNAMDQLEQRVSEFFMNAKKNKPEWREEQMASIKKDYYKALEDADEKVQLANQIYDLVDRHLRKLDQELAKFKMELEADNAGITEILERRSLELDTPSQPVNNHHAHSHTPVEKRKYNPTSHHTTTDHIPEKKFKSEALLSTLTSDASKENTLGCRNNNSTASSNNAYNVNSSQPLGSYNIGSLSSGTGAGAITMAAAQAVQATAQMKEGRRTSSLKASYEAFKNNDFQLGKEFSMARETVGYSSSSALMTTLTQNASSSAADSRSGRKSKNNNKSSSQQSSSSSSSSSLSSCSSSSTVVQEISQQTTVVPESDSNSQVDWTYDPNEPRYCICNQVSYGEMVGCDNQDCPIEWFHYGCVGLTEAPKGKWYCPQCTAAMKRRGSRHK
UniProt P19827: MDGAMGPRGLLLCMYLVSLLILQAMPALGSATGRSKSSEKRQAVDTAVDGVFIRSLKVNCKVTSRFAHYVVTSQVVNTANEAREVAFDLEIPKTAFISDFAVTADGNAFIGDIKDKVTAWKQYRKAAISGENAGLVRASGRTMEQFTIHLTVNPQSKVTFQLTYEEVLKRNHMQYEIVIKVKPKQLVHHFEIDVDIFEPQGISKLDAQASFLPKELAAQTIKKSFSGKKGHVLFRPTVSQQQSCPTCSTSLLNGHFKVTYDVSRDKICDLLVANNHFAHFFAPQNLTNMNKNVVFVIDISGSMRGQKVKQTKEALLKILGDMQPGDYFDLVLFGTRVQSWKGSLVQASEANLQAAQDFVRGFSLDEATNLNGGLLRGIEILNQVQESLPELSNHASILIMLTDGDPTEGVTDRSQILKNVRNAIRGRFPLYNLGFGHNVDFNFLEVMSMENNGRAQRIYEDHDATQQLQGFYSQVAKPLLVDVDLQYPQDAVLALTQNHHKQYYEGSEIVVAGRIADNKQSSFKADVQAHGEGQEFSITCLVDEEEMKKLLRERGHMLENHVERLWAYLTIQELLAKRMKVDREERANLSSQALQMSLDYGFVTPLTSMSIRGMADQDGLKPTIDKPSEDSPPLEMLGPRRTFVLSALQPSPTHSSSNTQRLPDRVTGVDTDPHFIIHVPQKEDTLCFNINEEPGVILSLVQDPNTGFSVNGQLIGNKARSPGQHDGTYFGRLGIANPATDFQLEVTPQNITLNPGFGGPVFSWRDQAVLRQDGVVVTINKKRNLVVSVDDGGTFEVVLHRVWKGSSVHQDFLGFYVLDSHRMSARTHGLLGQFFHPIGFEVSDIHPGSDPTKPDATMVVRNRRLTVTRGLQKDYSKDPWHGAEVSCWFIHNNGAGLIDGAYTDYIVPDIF
UniProt Q13352: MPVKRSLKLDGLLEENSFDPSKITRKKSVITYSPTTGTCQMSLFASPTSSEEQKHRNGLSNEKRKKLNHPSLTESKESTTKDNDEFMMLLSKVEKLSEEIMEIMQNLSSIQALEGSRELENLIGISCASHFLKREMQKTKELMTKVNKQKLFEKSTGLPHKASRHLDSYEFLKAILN
IGKV3D-11, A0A0A0MRZ8, UniProt A0A0A0MRZ8, whole entry, looked up: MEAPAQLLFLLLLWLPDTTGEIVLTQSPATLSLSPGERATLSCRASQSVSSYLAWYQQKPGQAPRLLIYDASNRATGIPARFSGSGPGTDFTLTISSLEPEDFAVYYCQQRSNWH
UniProt P31785: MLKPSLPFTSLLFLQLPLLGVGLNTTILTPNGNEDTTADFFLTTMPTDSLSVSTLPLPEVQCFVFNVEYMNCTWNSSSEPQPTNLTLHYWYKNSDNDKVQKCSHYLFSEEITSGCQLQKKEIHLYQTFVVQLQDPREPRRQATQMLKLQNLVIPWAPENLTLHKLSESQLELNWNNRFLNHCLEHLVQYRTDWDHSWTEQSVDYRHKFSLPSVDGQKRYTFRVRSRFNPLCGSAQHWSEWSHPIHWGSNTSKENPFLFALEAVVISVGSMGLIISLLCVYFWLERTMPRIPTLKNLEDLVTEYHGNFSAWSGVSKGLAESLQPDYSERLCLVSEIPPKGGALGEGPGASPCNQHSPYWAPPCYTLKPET
UniProt Q9UNL4, whole entry, looked up: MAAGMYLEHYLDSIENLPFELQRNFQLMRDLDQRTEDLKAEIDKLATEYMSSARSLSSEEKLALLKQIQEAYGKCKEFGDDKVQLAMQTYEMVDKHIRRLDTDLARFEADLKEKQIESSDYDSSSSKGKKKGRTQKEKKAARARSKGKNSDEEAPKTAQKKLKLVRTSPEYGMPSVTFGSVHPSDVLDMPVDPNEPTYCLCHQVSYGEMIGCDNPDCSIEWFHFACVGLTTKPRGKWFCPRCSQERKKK
UniProt Q96CB8, whole entry, looked up: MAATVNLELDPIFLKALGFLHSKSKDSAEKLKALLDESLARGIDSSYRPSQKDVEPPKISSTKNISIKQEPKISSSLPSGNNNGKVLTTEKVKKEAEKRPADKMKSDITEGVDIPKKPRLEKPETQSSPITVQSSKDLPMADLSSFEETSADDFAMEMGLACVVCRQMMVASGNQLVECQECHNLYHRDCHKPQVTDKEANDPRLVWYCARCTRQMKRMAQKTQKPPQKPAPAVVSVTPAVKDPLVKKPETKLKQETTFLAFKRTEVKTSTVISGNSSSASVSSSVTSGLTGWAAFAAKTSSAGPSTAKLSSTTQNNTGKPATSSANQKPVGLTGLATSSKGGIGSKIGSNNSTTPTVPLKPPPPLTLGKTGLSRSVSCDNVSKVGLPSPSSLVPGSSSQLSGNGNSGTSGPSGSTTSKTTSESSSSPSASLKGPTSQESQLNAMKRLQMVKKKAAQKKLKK
UniProt P24592: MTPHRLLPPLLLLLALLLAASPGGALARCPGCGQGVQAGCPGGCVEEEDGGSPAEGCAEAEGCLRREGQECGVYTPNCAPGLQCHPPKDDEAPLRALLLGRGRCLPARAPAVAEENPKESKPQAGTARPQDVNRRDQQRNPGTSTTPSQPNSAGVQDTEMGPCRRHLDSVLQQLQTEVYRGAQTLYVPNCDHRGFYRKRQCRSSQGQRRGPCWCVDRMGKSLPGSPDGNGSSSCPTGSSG
UniProt Q9BT40: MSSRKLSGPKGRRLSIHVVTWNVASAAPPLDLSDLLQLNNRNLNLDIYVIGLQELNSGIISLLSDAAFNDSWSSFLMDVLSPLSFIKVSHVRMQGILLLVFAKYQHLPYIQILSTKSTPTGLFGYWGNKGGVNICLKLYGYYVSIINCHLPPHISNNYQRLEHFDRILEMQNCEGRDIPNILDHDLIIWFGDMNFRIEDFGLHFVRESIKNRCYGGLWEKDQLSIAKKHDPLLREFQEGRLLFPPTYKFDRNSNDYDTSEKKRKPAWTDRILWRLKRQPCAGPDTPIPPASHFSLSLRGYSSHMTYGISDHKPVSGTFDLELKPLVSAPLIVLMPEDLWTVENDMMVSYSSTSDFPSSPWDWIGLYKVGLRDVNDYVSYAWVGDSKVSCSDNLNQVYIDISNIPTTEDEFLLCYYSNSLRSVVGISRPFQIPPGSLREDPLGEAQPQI
UniProt Q9NRY2: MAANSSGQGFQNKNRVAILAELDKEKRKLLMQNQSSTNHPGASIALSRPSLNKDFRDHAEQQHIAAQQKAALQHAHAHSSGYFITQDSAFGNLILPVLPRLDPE

Key:
Experiment in all cases: log2 fold change, soluble protein after heating vs DMSO (PISA); higher = thermal stabilisation; K562 cells, 10 uM, 30 min; active = over 0.2 and 3.5 SD of the protein, either way, in both replicates (recomputed)
[1] = compound: Cc1cccc(CC(=O)N2CCc3c2ccc(-c2cn(C)c4ncnc(N)c24)c3F)n1
Method in brief: (§1)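 K562 cells (2×10^6 cells/mL) were treated with 10 μM compound for 30 min, and aliquots were heated for 3 min over 48°C-58°C. Pooled aliquots were extracted in PBS with 0.5% NP-40 at 4°C, and the supernatant after 21,000xg for 90 min was measured by TMTpro 16plex LC-MS/MS with channel sums equalised. Reported thermal stability, relative to control samples and from duplicates, is a log2 fold change.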

[2] = compound: Cc1nc(Nc2ncc(C(=O)Nc3c(C)cccc3Cl)s2)cc(N2CCN(CCO)CC2)n1 [dasatinib]
Method in brief: as §1

[3] = compound: Cn1cc(-c2ccc3c(c2)CCN3C(=O)Cc2cccc(C(F)(F)F)c2)c2c(N)ncnc21
Method in brief: as §1

[4] = compound: Cn1cncc1[C@@](N)(c1ccc(Cl)cc1)c1ccc2c(c1)c(-c1cccc(Cl)c1)cc(=O)n2C [tipifarnib]
Method in brief: as §1

[5] = compound: NC(=O)Nc1cc(-c2cccc(F)c2)sc1C(=O)N[C@H]1CCCNC1
Method in brief: as §1

[6] = compound: NC(=O)c1cnc(N[C@@H]2CCCC[C@@H]2N)nc1Nc1cccc(-n2nccn2)c1
Method in brief: as §1

[7] = compound: NCC(=O)Nc1ccc(-n2nc(C(F)(F)F)cc2-c2ccc3c(ccc4ccccc43)c2)cc1
Method in brief: as §1

[8] = compound: Nc1ccccc1NC(=O)c1ccc(CNC(=O)OCc2cccnc2)cc1 [entinostat]
Method in brief: as §1

[9] = compound: O=C(CCCCCCC(=O)Nc1ccccc1)NO [vorinostat]
Method in brief: as §1

[10] = compound: O=C1NC(=O)C(c2cnc3ccccn23)=C1c1cn2c3c(cc(F)cc13)CN(C(=O)N1CCCCC1)CC2
Method in brief: as §1

[11] = compound: O=C(CCCCCCNC(=O)c1cnc(N(c2ccccc2)c2ccccc2Cl)nc1)NO [citarinostat]
Method in brief: as §1

[12] = compound: c1cc(OCCN2CCCCC2)cc(-c2n[nH]c3ccc(-c4nnc[nH]4)cc23)c1
Method in brief: as §1

[13] = compound: FC(F)(F)c1ccc(/C=C/c2nc(COc3ccc(CCCCn4ccnn4)cc3)co2)cc1 [mubritinib]
Method in brief: as §1

[14] = compound: NC1(c2ccc(-c3nc4ccn5c(=O)[nH]nc5c4cc3-c3ccccc3)cc2)CCC1
Method in brief: as §1

[15] = compound: O=C(O)c1ccc2c(c1)nc(Nc1cccc(Cl)c1)c1ccncc12 [silmitasertib]
Method in brief: as §1

[16] = compound: Cc1cn(-c2cc(NC(=O)c3ccc(C)c(Nc4nccc(-c5cccnc5)n4)c3)cc(C(F)(F)F)c2)cn1 [nilotinib]
Method in brief: as §1

[17] = compound: Cc1nc(Nc2n[nH]c3c2CN(C(=O)N[C@H](CN(C)C)c2ccccc2)C3(C)C)c2sccc2n1
Method in brief: as §1

[18] = compound: Cc1ncc(-c2ccnc(Nc3ccc(S(C)(=O)=O)cc3)n2)n1C(C)C
Method in brief: as §1

[19] = compound: Cn1cc(-c2ccc3nnc(C(F)(F)c4ccc5ncccc5c4)n3n2)cn1
Method in brief: as §1

Measured: log2 fold change

IGFBP3 isoform 2 (UniProt P17936)
inactive: [1] 0.043 | [2] -0.001 | [3] 0.106 | [4] -0.087 | [5] 0.042 | [6] -0.142 | [7] -0.043 | [8] -0.02 | [9] 0.167 | [10] -0.047

IQSEC1 (UniProt Q6DN90)
inactive: [5] -0.049 | [8] -0.076

ING3 (UniProt Q9NXR8)
inactive: [1] 0 | [9] 0.194 | [11] 0.08 | [12] 0.013

ITIH1 (UniProt P19827)
inactive: [13] -0.153 | [6] 0.073 | [14] -0.021 | [11] 0.176 | [15] 0.504 | [12] -0.05

ITGB3BP isoform 5 (UniProt Q13352)
inactive: [16] 0.211 | [17] 0.052 | [18] -0.101 | [19] -0.058

IGKV3D-11, A0A0A0MRZ8
inactive: [16] 0.674 | [17] -0.16 | [18] -0.007

IL2RG (UniProt P31785)
inactive: [1] 0 | [16] -0.128 | [17] 0.255 | [18] 0.154 | [3] 0.137 | [7] -0.041 | [9] -0.011 | [10] -0.091

ING4 (UniProt Q9UNL4)
inactive: [2] -0.149 | [6] -0.114 | [10] -0.006

IQSEC2 (UniProt Q5JU85)
inactive: [16] 0.068 | [17] 0.006 | [2] -0.408 | [18] 0.347 | [3] 0.001 | [4] 0.007 | [13] -0.14 | [14] 0.103 | [11] -0.08 | [15] 0.177 | [12] -0.046

INTS12 (UniProt Q96CB8)
inactive: [2] -0.247 | [3] 0.289 | [7] -0.318

IGFBP6 (UniProt P24592)
inactive: [2] -0.038 | [3] 0.152 | [19] 0.006 | [6] -0.079 | [7] -0.13

INPP5K (UniProt Q9BT40)
inactive: [1] -0.067 | [16] 0.038 | [17] 0.086 | [2] -0.241 | [18] -0.109 | [3] 0.06 | [19] 0.072 | [13] -0.005 | [5] 0.207 | [14] -0.225 | [7] -0.109 | [8] -0.323 | [9] 0.074 | [11] -0.024 | [15] -0.135 | [10] 0.029 | [12] -0.018

INIP (UniProt Q9NRY2)
inactive: [16] 0.067 | [17] -0.004 | [18] -0.115 | [4] -0.07 | [13] 0.024 | [5] -0.024 | [14] 0.046 | [7] 0.141 | [8] 0.023 | [11] -0.004 | [15] -0.028 | [10] -0.16 | [12] -0.035
